Results are given in words; binding and its absence hold for the method and conditions named. In cells and extracts the contact can be indirect. These calls come from enrichment with a bait or labelling near it, and not all partners need be listed. Sequences can lack the tags named with a protein.

The target in the test is T1, HA-mCherry-tagged GREM1 (Gremlin 1) (human) (UniProt O60565).
T1 sequence: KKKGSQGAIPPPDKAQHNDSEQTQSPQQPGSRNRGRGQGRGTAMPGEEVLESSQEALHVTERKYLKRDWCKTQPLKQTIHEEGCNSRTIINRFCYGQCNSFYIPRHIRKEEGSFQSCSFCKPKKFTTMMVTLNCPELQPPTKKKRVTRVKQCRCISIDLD
As to the kind of experiment: affinity purification with mass spectrometry; lysate of HCT116 cells transfected with HA-mCherry-GREM1, anti-HA magnetic beads, NP40 lysis buffer, overnight 4 °C; a ~110 kDa Coomassie band submitted for MS.

B1: activin A receptor type 1C (ACVR1C), endogenous in HCT116 (receptor, UniProt Q8NER5 21-493)
chain: ELSPGLKCVCLLCDSSNFTCQTEGACWASVMLTNGKEQVIKSCVSLPELNAQVFCHSSNNVTKTECCFTDFCNNITLHLPTASPNAPKLGPMELAIIITVPVCLLSIAAMLTVWACQGRQCSYRKKKRPNVEEPLSECNLVNAGKTLKDLIYDVTASGSGSGLPLLVQRTIARTIVLQEIVGKGRFGEVWHGRWCGEDVAVKIFSSRDERSWFREAEIYQTVMLRHENILGFIAADNKDNGTWTQLWLVSEYHEQGSLYDYLNRNIVTVAGMIKLALSIASGLAHLHMEIVGTQGKPAIAHRDIKSKNILVKKCETCAIADLGLAVKHDSILNTIDIPQNPKVGTKRYMAPEMLDDTMNVNIFESFKRADIYSVGLVYWEIARRCSVGGIVEEYQLPYYDMVPSDPSIEEMRKVVCDQKFRPSIPNQWQSCEALRVMGRIMRECWYANGAARLTALRIKKTISQLCVKEDCKA
For the molecule B1, the binding result is listed as “binds”.

The values above are taken from publication PMC13371181, “A paracrine-to-autocrine shunt of GREM1 fuels colorectal cancer metastasis via ACVR1C” (Molecular Cancer, 2026).
